The text below walks through data of article PMC9736779.

Protein sequences, listed by entry. Tags and fused reporters are not part of them.
UniProt P19338, whole entry: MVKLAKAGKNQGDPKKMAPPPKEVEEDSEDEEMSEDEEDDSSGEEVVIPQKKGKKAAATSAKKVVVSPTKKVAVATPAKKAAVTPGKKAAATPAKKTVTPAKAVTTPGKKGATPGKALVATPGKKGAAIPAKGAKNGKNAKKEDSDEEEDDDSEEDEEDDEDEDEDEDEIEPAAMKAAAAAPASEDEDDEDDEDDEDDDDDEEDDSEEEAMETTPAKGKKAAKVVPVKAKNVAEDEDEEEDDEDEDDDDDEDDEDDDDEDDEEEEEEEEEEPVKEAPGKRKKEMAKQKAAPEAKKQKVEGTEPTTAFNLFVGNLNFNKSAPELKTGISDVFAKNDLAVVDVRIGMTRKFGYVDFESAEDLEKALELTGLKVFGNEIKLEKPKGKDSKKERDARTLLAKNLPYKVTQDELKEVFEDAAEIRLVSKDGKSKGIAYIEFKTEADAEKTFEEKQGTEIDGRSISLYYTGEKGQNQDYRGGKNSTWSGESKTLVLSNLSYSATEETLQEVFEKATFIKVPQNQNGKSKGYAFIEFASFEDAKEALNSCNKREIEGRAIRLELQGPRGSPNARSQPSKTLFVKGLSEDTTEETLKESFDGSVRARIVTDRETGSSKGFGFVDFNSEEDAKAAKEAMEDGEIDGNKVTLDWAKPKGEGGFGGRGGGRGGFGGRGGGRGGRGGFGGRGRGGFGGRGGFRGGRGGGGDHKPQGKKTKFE

This data set has as its target nucleolin (NCL) (Homo sapiens) (UniProt P19338). The experiment in a line: SPR. The conditions noted are these: negative control, small dose-response signal, fit failed, 70 mM KCl, SPR (Biacore X-100, CM5): 10 mM HEPES, pH 7.4, 25 C, analyte 5-500 uM, two-state reaction fit, commercial protein, single-stranded DNA.

The exact form of at least one protein or probe is not confirmed. Weaker means in comparison with the reference protein, sequence or condition of that experiment.

For TTTTTTTTTTTTTTTTTTTTTTT [T23, d(T)23], the binding result was “binds more weakly”.
